# Data: PubChem BioAssay AID493014 (National Center for Advancing Translational Sciences (NCATS), 2011)
# The campaign covered roughly 340,000 compounds. About 170 (0.05%) were called active. The shares of active, inactive and inconclusive entries below differ from those in the screen. The call rests on the fitted dose curve; in most records, active means well fitted inhibition curve with a large enough effect in the signal ratio, with a control signal flat (not every such curve was filed as active); inconclusive means small, poorly fitted or top-dose-only effect, or effect the other way, or a change in a side signal; inactive means flat fitted curve, though single readings scatter; the % refers to the signal ratio. Potencies of inconclusive entries are doubtful fits and often do not repeat.
# Assay: qHTS Assay to Find Inhibitors of Chronic Active B-Cell Receptor Signaling;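 on activity change, negative = inhibition: plate controls were basal doxycycline-induced cells for no effect and cells given 10 µM MG132 for full effect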
# Conditions: ABC-DLBCL IkBa-CBG/CBR reporter, luminescence ratio (green luciferase fused to IkBa over red control in TMD8 lymphoma cells), 4 h; activity change, negative = inhibition: at 46.1 µM (top of the series)
# Method in brief: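 TMD8 human ABC-DLBCL cells with doxycycline-inducible IκBα–green luciferase fusion and unfused red luciferase, in 0.5% FBS medium; compounds up to 46 uM, 4 h at 37C. Green/red luminescence ratio, filter-overlap corrected, fitted to concentration-response curves.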
# Potency means the concentration at half of the fitted maximal effect.
Structure (SMILES),Potency,"activity change, negative = inhibition"
O=C(Oc1ccc2c(c1)CCC2)N1CCOCC1,"inconclusive: 14.6 µM [rising, partial curve, poor fit]",–
C/C(=N\NC(N)=S)c1cc(-c2ccccc2)c(-c2ccccc2)s1,–,inconclusive: -7.09%
CC(=O)N1CCN(c2ccc(NCc3ccc(F)cc3)cc2)CC1,–,inconclusive: -1.57%
COc1ccc(/C=C/C(=O)c2ccc(OC)cc2O)cc1,–,inconclusive: -15.2%
COc1ccc(/C=N/Nc2ncnc3sc(C)c(C)c23)cc1,"inconclusive: 29.1 µM [falling, single point]",–
CN(C)C(=O)CSc1n[nH]c(=O)[nH]c1=O,–,inconclusive: -25.2%
Nc1nnc(-c2ccc(Cl)cc2)o1,–,inconclusive: 1.99%
CN(c1ccccc1)S(=O)(=O)c1ccc(NC(=O)c2cccs2)cc1,–,inactive
CC1CCCCC1NC(=O)COC(=O)c1ccc2c(c1Cl)C(=O)c1ccccc1C2=O (configuration not stated),–,inactive
CCOc1ccc(S(=O)(=O)Nc2cccc(C(=O)NCC3(N4CCCCC4)CCCCC3)c2)cc1,"inconclusive: 29.1 µM [falling, partial curve, poor fit]",–
COc1ccccc1C(=O)Nc1cccc(C(=O)c2ccccc2)c1,–,inconclusive: -9.41%
COC(=O)CN1C(=S)N(c2ccc(Cl)cc2)C(=O)C1CC(=O)Nc1ccc(Cl)cc1 (configuration not stated),"inconclusive: 35.5 µM [falling, single point]",–
CN(C)S(=O)(=O)c1cccc(NC(=O)C2CCN(S(=O)(=O)c3cccs3)CC2)c1,–,inactive
COc1cc(/C=N/N=C(\N)c2nonc2N)cc(OC)c1O,–,inconclusive: -0.499%
CCC(C)NS(=O)(=O)c1ccc(OCC(=O)NCc2cccnc2)cc1 (configuration not stated),–,inconclusive: 8.87%
Cc1cc(N=Cc2c(O)ccc3cc(Br)ccc23)no1,"inconclusive: 25.9 µM [falling, single point]",–
O=C(NCCOc1ccc(Cl)cc1)c1ccco1,–,inconclusive: 4.34%
O=C(CSc1nnc(-c2cccnc2)o1)c1cc2ccccc2oc1=O,"inconclusive: 10.3 µM [falling, partial curve, poor fit]",–
CC(=O)Nc1ccc(S(=O)(=O)N2CCN(c3cccc(C)c3C)CC2)cc1,–,inactive
COc1ccc(-c2noc(=O)n2Cc2ccc(C#N)cc2)cc1,–,inactive
O=C(O)C1CCN(c2nc(-c3ccccc3)c3cc(Br)ccc3n2)CC1,–,inconclusive: 14.5%

Structure (SMILES),Potency,"activity change, negative = inhibition"
CCn1c(/C=C/c2ccc(F)cc2)nc2ccccc2c1=O,–,inconclusive: 1.43%
COc1ccc(-n2cc(CNCc3cnc4ccccn34)c(-c3cccc(F)c3)n2)cc1,–,inconclusive: -0.665%
Cc1ccc(CN(Cc2ccco2)C(=S)Nc2ccccc2C)cc1,–,inactive
O=C(NC12CC3CC(CC(C3)C1)C2)c1ccc(-c2ccc(Br)cc2)o1,–,inconclusive: 6.99%
CCOC(=O)CCCc1c[nH]c2ccccc12,–,inconclusive: 3.03%
S=C(Nc1cccc2ccccc12)NC1CCCCC1,–,inconclusive: 0.899%
O=C(NC1CC1)c1cccc(Nc2ccc(-c3ccc4c(c3)OCCO4)nn2)c1,"inconclusive: 18.4 µM [falling, single point]",–
Cc1ccc(S(=O)(=O)N[C@@H](CC(C)C)C(=O)N2CCC(C(=O)N[C@@H](Cc3ccccc3)C(=O)O)CC2)cc1,"inconclusive: 35.5 µM [falling, single point]",–
COc1ccc(/C=N/NC(=O)c2cccc(C(F)(F)F)c2)cc1,"inconclusive: 14.1 µM [falling, partial curve, poor fit]",–
Cc1cccc(NC(=S)N(Cc2cccs2)Cc2cc3cc(C)cc(C)c3[nH]c2=O)c1,–,inconclusive: 18%
COC(=O)N/N=C/c1sc(N2CCCCC2)nc1-c1cccs1,–,inconclusive: -0.681%
O=C(CSc1nc2ccccc2s1)Nc1cc(C(=O)O)cc(C(=O)O)c1,–,inactive
COc1ccc(C)cc1NS(=O)(=O)c1cc(C)ccc1C,–,inconclusive: -6.87%
O=C(NC(=S)Nc1ccccc1N1CCOCC1)c1ccc(Br)cc1,–,inactive
C/C(=N\NC(=O)c1ccc(O)cc1)c1ccc(NC(=O)Cc2ccccc2)cc1,–,inconclusive: 280%
Cc1ccc(NC(=O)COC(=O)c2cccc(N3C(=O)c4ccccc4C3=O)c2)cc1,–,inconclusive: -13.3%
Cc1nc(S/C(=C/c2ccc(-c3ccc(Cl)cc3)o2)C(=O)O)n[nH]1,–,inconclusive: -3.61%
CC1=NN(C(=O)c2cc(C)nn2C)C(O)(C(F)(F)F)C1 (configuration not stated),"inconclusive: 29.1 µM [falling, single point]",–
O=S(=O)(NCc1cccc(C(F)(F)F)c1)NCc1ccccc1F,–,inactive
CCN(CC)CCNc1nc(-c2ccccc2)c2c(c1C#N)CC(C)(C)OC2,"inconclusive: 2.59 µM [rising, full curve, poor fit]",–
CCOC(=S)N/C(=N\S(=O)(=O)c1ccccc1)c1ccccc1,–,inconclusive: 9.48%

Structure (SMILES),Potency,"activity change, negative = inhibition"
COc1ccc(C2CC3(CC(C)(C)NC(=S)N3)Oc3cc(O)cc(C)c32)cc1OC (configuration not stated),"inconclusive: 1.26 µM [falling, partial curve, poor fit]",–
O=C(Nc1ccc(S(=O)(=O)N2CCOCC2)cc1)c1ccc(Br)o1,–,inconclusive: 4%
CCOc1ccccc1NC(=O)CSc1nnc(-c2cnccn2)n1CC,"inconclusive: 18.4 µM [falling, single point]",–
COc1cccc(-c2nnc(SCC(=O)NC3CCS(=O)(=O)C3)n2C)c1 (configuration not stated),–,inactive
Oc1ccc(CNc2ccc(F)cc2)c2cccnc12,–,inactive
CCOc1ccc(-n2c(C)c(C(C)=O)c3cc(OC(C)=O)ccc32)cc1,–,inactive
CN(C)CCOc1ccccc1-c1ccccc1,–,inconclusive: 12%
N=C1N(/N=C/c2ccccc2)C(=Nc2ccccc2)C(=S)N1c1ccccc1,"inconclusive: 2.06 µM [falling, partial curve, poor fit]",–
COc1ccc(S(=O)(=O)Nc2ccc(Oc3ccsc3C(=O)O)cc2)cc1,–,inconclusive: -1.37%
O=C(CN1CCN(CC(=O)Nc2ccc(Cl)cc2)CC1)Nc1ccc(F)cc1,–,inactive
COc1cc(C(=S)N2CCCCC2)ccc1O,–,inconclusive: 3.37%
O=C(N/N=C\c1ccc(Cl)cc1Cl)c1sccc1-n1cccc1,–,inconclusive: 11.4%
COc1ccc(-n2cc(-c3ccc(Cl)cc3)[nH]c2=S)cc1,–,inconclusive: 16.6%
CC1=C(C(=O)OC(C)C)C(c2cccs2)C(C(=O)OC(C)C)=C(C)N1,–,inactive
CC(=O)Nc1ccc(S(=O)(=O)NCCC(=O)NNC(=O)c2ccccc2O)cc1,–,inactive
C/C(=N/NC(=O)CNC(=O)c1ccc2c(c1)OCO2)c1ccc2c(c1)CCCC2,"inconclusive: 8.91 µM [falling, partial curve]",–
CCN(CC)S(=O)(=O)c1ccc(NC(=O)CSc2ncnc3ccccc23)cc1,"inconclusive: 16.4 µM [falling, partial curve, poor fit]",–
CC(C)(C)NC(=O)c1cccc(NC(=O)Cc2cccs2)c1,–,inactive
CCOc1ccccc1NC(=O)NCc1ccccc1F,–,inconclusive: 6.58%
CN(C(=O)c1ccno1)c1nnc(-c2ccccn2)s1,–,inactive
CC1CN(S(=O)(=O)c2ccc(C(=O)Nc3ccc(S(=O)(=O)N4CCOCC4)cc3)cc2)CC(C)O1 (configuration not stated),–,inactive

# No new results follow: 22 of the compounds above.
Structure (SMILES),Potency,"activity change, negative = inhibition"
CCOC(=S)N/C(=N\S(=O)(=O)c1ccccc1)c1ccccc1,–,inconclusive: 9.48%
COc1ccc(C2CC3(CC(C)(C)NC(=S)N3)Oc3cc(O)cc(C)c32)cc1OC (configuration not stated),"inconclusive: 1.26 µM [falling, partial curve, poor fit]",–
O=C(Nc1ccc(S(=O)(=O)N2CCOCC2)cc1)c1ccc(Br)o1,–,inconclusive: 4%
CCOc1ccccc1NC(=O)CSc1nnc(-c2cnccn2)n1CC,"inconclusive: 18.4 µM [falling, single point]",–
COc1cccc(-c2nnc(SCC(=O)NC3CCS(=O)(=O)C3)n2C)c1 (configuration not stated),–,inactive
Oc1ccc(CNc2ccc(F)cc2)c2cccnc12,–,inactive
CCOc1ccc(-n2c(C)c(C(C)=O)c3cc(OC(C)=O)ccc32)cc1,–,inactive
CN(C)CCOc1ccccc1-c1ccccc1,–,inconclusive: 12%
N=C1N(/N=C/c2ccccc2)C(=Nc2ccccc2)C(=S)N1c1ccccc1,"inconclusive: 2.06 µM [falling, partial curve, poor fit]",–
COc1ccc(S(=O)(=O)Nc2ccc(Oc3ccsc3C(=O)O)cc2)cc1,–,inconclusive: -1.37%
O=C(CN1CCN(CC(=O)Nc2ccc(Cl)cc2)CC1)Nc1ccc(F)cc1,–,inactive
COc1cc(C(=S)N2CCCCC2)ccc1O,–,inconclusive: 3.37%
O=C(N/N=C\c1ccc(Cl)cc1Cl)c1sccc1-n1cccc1,–,inconclusive: 11.4%
COc1ccc(-n2cc(-c3ccc(Cl)cc3)[nH]c2=S)cc1,–,inconclusive: 16.6%
CC1=C(C(=O)OC(C)C)C(c2cccs2)C(C(=O)OC(C)C)=C(C)N1,–,inactive
CC(=O)Nc1ccc(S(=O)(=O)NCCC(=O)NNC(=O)c2ccccc2O)cc1,–,inactive
C/C(=N/NC(=O)CNC(=O)c1ccc2c(c1)OCO2)c1ccc2c(c1)CCCC2,"inconclusive: 8.91 µM [falling, partial curve]",–
CCN(CC)S(=O)(=O)c1ccc(NC(=O)CSc2ncnc3ccccc23)cc1,"inconclusive: 16.4 µM [falling, partial curve, poor fit]",–
CC(C)(C)NC(=O)c1cccc(NC(=O)Cc2cccs2)c1,–,inactive
CCOc1ccccc1NC(=O)NCc1ccccc1F,–,inconclusive: 6.58%
CN(C(=O)c1ccno1)c1nnc(-c2ccccn2)s1,–,inactive
CC1CN(S(=O)(=O)c2ccc(C(=O)Nc3ccc(S(=O)(=O)N4CCOCC4)cc3)cc2)CC(C)O1 (configuration not stated),–,inactive

# Remaining list, next part

Structure (SMILES),Potency,"activity change, negative = inhibition"
N/C(CN1CCCC1=O)=N\OC(=O)c1ccc(Cl)c(Cl)c1,–,inconclusive: 28.7%
O=C(CCN1N=C(c2ccccc2)CCC1=O)NC1CCCC1,–,inconclusive: 8.84%
O=C(COc1ccc(F)cc1)OCCN1CCOCC1,–,inconclusive: 9.6%
CCOc1ccc(N=C(C)C2=C(O)c3ccccc3C2=O)cc1,–,inconclusive: 4.48%
CN(CC(=O)Nc1ccccc1C(=O)NC1CC1)Cc1cccs1,–,inactive
CCS(=O)(=O)N1Cc2ccccc2CC1C(=O)Nc1ccc(OC)c(OC)c1 (configuration not stated),–,inconclusive: 6.76%
COc1ccccc1N(CC(=O)NCCSCc1ccc(C)cc1)S(=O)(=O)c1ccccc1,–,inconclusive: -0.203%
CC(=O)N1CCOc2cc(S(=O)(=O)NC(C)c3ccccc3)c(Cl)cc21 (configuration not stated),–,inactive
Cc1cc(Br)ccc1NC(=O)CN(C)Cc1cccs1,–,inconclusive: 14.6%
Cc1noc(C)c1COc1cccc(C(=O)OC(C)C(=O)Nc2ccc3c(c2)OCO3)c1 (configuration not stated),"inconclusive: 18.4 µM [falling, partial curve]",–
CC1CCCC(NC(=O)c2cn(C)c3ccc(S(=O)(=O)N4CCCC4)cc3c2=O)C1C (configuration not stated),–,inconclusive: -8.35%
Cc1noc(C)c1C(=O)OC(C)C(=O)NC(C)c1ccc(Cl)cc1Cl (configuration not stated),–,inconclusive: 0.44%
Cc1cc(C(=O)N/N=C2\CCCC(=O)C2)c(C)o1,"inconclusive: 25.9 µM [falling, single point]",–
Cc1ccc(C(=O)CCC(=O)Nc2ncccc2O)cc1,"inconclusive: 23.1 µM [falling, partial curve]",–
O=C(NNC(=S)Nc1ccc(Br)cc1)c1ccccc1Br,"inconclusive: 8.91 µM [falling, partial curve, poor fit]",–
COc1cccc(C2=C(C(C)=O)Sc3nncn3N2C(C)=O)c1,"inconclusive: 2 µM [falling, full curve, poor fit]",–
COc1ccc(CCNc2cc(C)nc3c(-c4ccc(Cl)cc4)cnn23)cc1OC,–,inactive
Cc1ccc(-c2c3c(=O)n(C)c(=O)n(C)c3cn2CCCN2CCOCC2)cc1,–,inconclusive: 0.386%
Cc1cccc(-c2nc3c(c(SCC(=O)N4CCOCC4)n2)Cc2c(CO)cnc(C)c2O3)c1,"inconclusive: 20 µM [falling, partial curve, poor fit]",–
